# Experimental data: PubChem BioAssay AID493014 (National Center for Advancing Translational Sciences (NCATS), 2011)
# Some of the results follow. Shown are side measurements of this screen, not its main read-out; they come without a call. Most of these compounds were active or inconclusive in the main read-out, so they are no random draw. Words in brackets tell the shape of the fitted curve; partial curves, single points and poor fits give uncertain potencies.
# Test: qHTS Assay to Find Inhibitors of Chronic Active B-Cell Receptor Signaling
# Settings: ABC-DLBCL IkBa-CBG/CBR reporter, luminescence ratio (green luciferase fused to IkBa over red control in TMD8 lymphoma cells), 4 h
# Method in brief: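 TMD8 human ABC-DLBCL cells with doxycycline-inducible IκBα–green luciferase fusion and unfused red luciferase, in 0.5% FBS medium; compounds up to 46 uM, 4 h at 37C. Green/red luminescence ratio, filter-overlap corrected, fitted to concentration-response curves.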
# [1] = measured here: CBR red luminescence, cell number
# [2] = measured here: IkBa-CBG green luminescence
SMILES,AC50 [1],AC50 [2]
O=C(C/C(=N\NC(=O)c1ccccc1Br)C(F)(F)F)c1cccs1,"14.6 µM [falling, partial curve]",–
COc1cccc(CN(C)Cc2c(O)ccc3ccccc23)c1,"7.08 µM [falling, full curve, poor fit]",–
O=C(Nc1ccc(Cl)cc1)OC(CN1CCCCC1)C(F)(F)F (configuration not stated),"5.62 µM [rising, single point]",–
O=S(=O)(Nn1c(O)c(C=C2N=c3ccccc3=N2)sc1=S)c1ccccc1,"10 µM [falling, partial curve]",–
COc1cc2cc(CCCOC(=O)c3cc(OC)c(OC)c(OC)c3)oc(=O)c2cc1OC,"8.2 µM [rising, partial curve, poor fit]",–
CCOc1cc(C2C(C(C)=O)=C(O)C(=O)N2CCc2c[nH]c3ccccc23)ccc1O (configuration not stated),"5.01 µM [rising, partial curve, poor fit]",–
O=c1/c(=C\c2ccc(F)cc2)sc2n1CCCN=2,"25.1 µM [falling, single point]",–
CCC1=Nc2cc(C(=O)NCCN3CCCC3)ccc2Sc2ccc(C)cc21,"3.16 µM [falling, partial curve, poor fit]",–
N/C(=N\OC(=O)c1ccc(Cl)cc1)c1cccnc1,"0.116 µM [rising, full curve, poor fit]",–
Cc1onc(-c2c(Cl)cccc2Cl)c1NC(=O)NN(C)c1ccc([N+](=O)[O-])cn1,"35.5 µM [rising, single point]",–
Cc1cccc(-c2cc(C(=O)Nc3cccnc3)c3ccccc3n2)c1,"22.4 µM [falling, single point]",–
CCC(=O)Nc1cccc(NC(=O)COc2ccc(OC)cc2)c1,"0.731 µM [falling, full curve]",–
CSc1ncccc1C(=O)OCc1ccccc1,"3.16 µM [rising, partial curve, poor fit]",–
Cc1ccc(NC(=O)NC(=O)c2cnccc2C(F)(F)F)c(C)c1,"0.355 µM [rising, full curve, poor fit]",–
O=C(Nc1ccc(Oc2ccc(C(F)(F)F)cn2)c(Cl)c1)C1CC1,"22.4 µM [rising, single point]",–
CCN(CC)c1ccc(S(=O)(=O)N2CCOCC2)cc1NC(=O)CSc1nncn1C,"29.1 µM [rising, single point]",–
COc1ccc(S(=O)(=O)CCC(=O)NCCc2cccc(C)c2)cc1,"0.164 µM [rising, full curve, poor fit]",–
CCSC1=C(C#N)C2(CCCC2)C(C#N)=C(N)N1,"20 µM [falling, single point]",–
O=C(C1CCCN1C(=O)c1cccs1)N1CCc2ccccc21 (configuration not stated),"35.5 µM [rising, single point]",–
O=C1NC2(CCCCO2)CO1 (configuration not stated),"35.5 µM [falling, single point]",–
Cc1cc(Br)ccc1NC(=O)CN1C(=O)C2C3CC(c4ccccc4)C(C3)C2C1=O (configuration not stated),"10 µM [falling, partial curve, poor fit]",–
O=c1[nH]c2ccccc2n2c(-c3ccccc3)nnc12,"9.2 µM [falling, single point]","20.6 µM [rising, partial curve, poor fit]"

SMILES,AC50 [1],AC50 [2]
CCN(CC)C(=O)/C=C/c1ccc(OC)c(S(=O)(=O)N2CCCCC2)c1,"14.1 µM [rising, partial curve, poor fit]",–
Cc1cc2ncn(CCC(=O)NC3CCCC3)c2cc1C,"11.2 µM [rising, partial curve, poor fit]",–
COC(=O)N/N=C/c1ccc(-c2cc(Cl)ccc2Cl)o1,"1.3 µM [rising, partial curve, poor fit]",–
O=C(Nc1nc2ccccc2s1)Nc1ccc(F)cc1F,"4.47 µM [falling, full curve]",–
O=C1N=C(N2CCC(Cc3ccccc3)CC2)S/C1=C/c1cn[nH]c1-c1ccccc1,"15.8 µM [falling, partial curve, poor fit]",–
Cc1nnc2c(NC3CCCC3)nc3ccccc3n12,"7.08 µM [falling, partial curve, poor fit]",–
CC(=O)Nc1ccc(C)cc1,"5.17 µM [falling, partial curve, poor fit]",–
O=C(COC(=O)c1ccccc1C(=O)c1ccc(Cl)c([N+](=O)[O-])c1)NC1CC1,"7.94 µM [falling, partial curve, poor fit]","5.01 µM [rising, full curve, poor fit]"
Cc1ccc(NC(=O)c2cc(C)on2)cc1,"3.98 µM [rising, partial curve, poor fit]",–
Cc1nn(Cc2ccccc2)c(Cl)c1/C=C/C(=O)OC(C)C(=O)N1CCCC1 (configuration not stated),"5.62 µM [rising, single point]",–
COc1ccc(-c2cc(=O)c(C(=O)c3ccc(C)cc3)n[nH]2)cc1,"0.2 µM [falling, partial curve, poor fit]",–
Nc1nccnc1C(=O)OCC(=O)c1ccc[nH]1,"20.6 µM [falling, partial curve, poor fit]",–
COc1ccc(-c2cc(=O)oc3c(C)c(OCC(=O)NCCCn4ccnc4)ccc23)cc1,"6.31 µM [rising, single point]",–
Cc1ccccc1C(=O)N1CCC(C(=O)Nc2cc(C(F)(F)F)ccc2N2CCCC2)CC1,"18.4 µM [falling, single point]",–
O=S(=O)(NCC(c1ccco1)N1CCCCC1)c1ccccc1C(F)(F)F (configuration not stated),"25.9 µM [falling, single point]",–
COc1ccccc1-c1cc2ccccc2[nH]1,"0.184 µM [rising, full curve, poor fit]",–
Cc1nc2ccccc2c2nc(NC(=O)Cc3ccccc3)nn12,"0.184 µM [falling, full curve, poor fit]",–
CC(C)C(C(=O)NCc1ccco1)N(C(=O)CNS(=O)(=O)c1ccccc1)C1CCCC1 (configuration not stated),"35.5 µM [falling, single point]",–
N/C(=N\OC(=O)c1ccccc1Cl)c1cccc([N+](=O)[O-])c1,"5.62 µM [rising, partial curve, poor fit]",–
CCOc1ccc(CNC(=O)CCCOc2cc(=O)n(C)c3ccccc23)cc1,"25.9 µM [falling, single point]",–
CCOC(=O)C1CCCN(c2c(NCCN3CCCCC3CC)c(=O)c2=O)C1 (configuration not stated),"1.46 µM [rising, partial curve, poor fit]",–
COc1ccc(-c2coc3cc(O)ccc3c2=O)cc1O,"0.891 µM [falling, full curve]",–

SMILES,AC50 [1],AC50 [2]
CCN(CC)CCCN=Cc1c(-c2ccccc2)[nH]n(-c2nc3ccccc3s2)c1=O,"31.6 µM [falling, single point]",–
O=C(Nc1ccc2c(c1)Cc1ccccc1-2)c1ccncc1,"3.26 µM [rising, partial curve, poor fit]",–
Cc1ncc(CO)c(/C=N/NC(=O)c2ccoc2C)c1O,"29.1 µM [falling, single point]",–
Fc1ccc(-c2cc(C(F)(F)F)nc(-n3cc(Cl)cn3)n2)cc1,"5.62 µM [falling, single point]",–
CCOc1ccc(NC(=O)c2c(NCc3cccnc3)sc3c2CCCC3)cc1,"10 µM [falling, partial curve]",–
Cc1cc(N2CCCCC2)nc(-c2ccc(Br)cc2)n1,"35.5 µM [rising, single point]",–
Fc1ccccc1-c1nc(NCc2ccco2)c2ccccc2n1,"35.5 µM [falling, single point]",–
CCOC(=O)c1ccc(NC(=O)N2CCN(S(C)(=O)=O)CC2)cc1,"29.1 µM [rising, single point]",–
Fc1cc(NCc2ccccc2)nc(NCc2ccccc2)n1,"32.6 µM [falling, single point]",–
Cc1ccccc1NC1=C(Cl)C(=O)N(C2CCCCC2)C1=O,"1.84 µM [falling, partial curve, poor fit]",–
O=C(CSc1nnc(-c2ccccc2F)o1)N1CCNC1=O,"6.51 µM [falling, single point]",–
O=C(O)CCCC(=O)Nc1ccc(Br)cc1C(=O)O,"5.8 µM [falling, partial curve]",–
Cc1ccc(NC(=O)/C(=C/c2cccc([N+](=O)[O-])c2)NC(=O)C2CCCCC2)cc1,"3.66 µM [falling, single point]",–
CC(C)C(NC(=O)c1ccccc1F)C(=O)NCCc1ccccn1 (configuration not stated),"0.562 µM [rising, full curve, poor fit]",–
NC(=O)c1oc2ccccc2c1NC(=O)CCc1ccccc1,"14.6 µM [falling, partial curve, poor fit]",–
O=C(CNC(=O)c1ccco1)OCC(=O)c1ccc([N+](=O)[O-])cc1,"17.8 µM [falling, single point]",–
O=C(Nc1nccs1)c1cc(-c2ccccc2)nn1-c1ccccc1,"0.00651 µM [rising, full curve, poor fit]",–
O=[N+]([O-])c1ccc(N/N=C/c2cccnc2)cc1,"3.55 µM [rising, full curve, poor fit]",–
CCOC(=O)Cc1csc(NC(=O)c2ccc3ccccc3n2)n1,"2 µM [falling, full curve]",–
CCOc1ccc(-c2nnc(SCC(=O)N(CC)CC)n2N)cc1,"3.98 µM [falling, partial curve, poor fit]",–
CC(=O)N1c2ccccc2C(C)(c2ccccc2)CC1(C)C (configuration not stated),"0.00517 µM [falling, full curve, poor fit]",–

# 13 compounds from above, ordered by molecular weight, high to low.
SMILES,AC50 [1],AC50 [2]
CCN(CC)CCCN=Cc1c(-c2ccccc2)[nH]n(-c2nc3ccccc3s2)c1=O,"31.6 µM [falling, single point]",–
Cc1ccc(NC(=O)/C(=C/c2cccc([N+](=O)[O-])c2)NC(=O)C2CCCCC2)cc1,"3.66 µM [falling, single point]",–
CCOC(=O)c1ccc(NC(=O)N2CCN(S(C)(=O)=O)CC2)cc1,"29.1 µM [rising, single point]",–
O=C(Nc1nccs1)c1cc(-c2ccccc2)nn1-c1ccccc1,"0.00651 µM [rising, full curve, poor fit]",–
CC(C)C(NC(=O)c1ccccc1F)C(=O)NCCc1ccccn1 (configuration not stated),"0.562 µM [rising, full curve, poor fit]",–
CCOC(=O)Cc1csc(NC(=O)c2ccc3ccccc3n2)n1,"2 µM [falling, full curve]",–
Cc1cc(N2CCCCC2)nc(-c2ccc(Br)cc2)n1,"35.5 µM [rising, single point]",–
O=C(O)CCCC(=O)Nc1ccc(Br)cc1C(=O)O,"5.8 µM [falling, partial curve]",–
Fc1ccccc1-c1nc(NCc2ccco2)c2ccccc2n1,"35.5 µM [falling, single point]",–
NC(=O)c1oc2ccccc2c1NC(=O)CCc1ccccc1,"14.6 µM [falling, partial curve, poor fit]",–
CC(=O)N1c2ccccc2C(C)(c2ccccc2)CC1(C)C (configuration not stated),"0.00517 µM [falling, full curve, poor fit]",–
O=C(Nc1ccc2c(c1)Cc1ccccc1-2)c1ccncc1,"3.26 µM [rising, partial curve, poor fit]",–
O=[N+]([O-])c1ccc(N/N=C/c2cccnc2)cc1,"3.55 µM [rising, full curve, poor fit]",–
